The source of these data is PubChem BioAssay AID292 (DTP/NCI, 2004).

Molecules are shown by their SMILES. The list does not hold the whole screen: it gathers tests that were run many times, whatever their T/C, doses with no T/C, and many T/C values between a quarter and a half above the control. Other doses and runs of a compound stand elsewhere. T/C gives the treated animals as a percentage of the vehicle group. Some entries give survivors of the animals treated and no T/C: the source holds a T/C of zero for them, seemingly a mark for toxic or unscored doses. Some survivor counts are full or nearly so, which does not show that the dose was tolerated: survival well below the control is almost never listed, so the zero probably covers shortened survival too. Counts of survivors are from the toxicity check (mostly the fifth day) where no day follows; animals may have died later. Schedule codes are those of the source, read here as Q, the interval in days (D) or hours (H), X, the number of doses. Some entries were tested several times; the values are given in rising order. For survival time, the PubChem record calls one and a half times the control and up active, and a quarter to a half above the control has no call in these data; cut-offs in other NCI protocols can differ. Some T/C values carry the count of animals alive at the toxicity check (mostly the fifth day); without a count, all were alive then.

The subject of the assay is B6C3F1 mice, ip Sarcoma M5076, median survival T/C. The assay can be described thus: NCI In Vivo Anticancer Drug Screen. Data for tumor model Sarcoma M5076 (intraperitoneal) in B6C3F1 mice. The following applies: T/C endpoint: median survival time, higher T/C = longer survival. The gist of the method:
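Tumour cells were transplanted into mice, compound or vehicle was given, survival of both groups was followed, and the treated figure was expressed over the control figure.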

Setting [1] is: dose: 2.0 mg/kg/injection, schedule: Q04DX004 (ip), vehicle: Klucel (hydroxypropylcellulose) (HPC).
Where [2] appears, read: dose: 400.0 mg/kg/injection, schedule: Q04DX004 (ip), vehicle: saline with Tween-80.
Setting [3] is: dose: 800.0 mg/kg/injection, schedule: Q04DX004 (ip), vehicle: saline with Tween-80.
Setting [4] is: dose: 1.5 mg/kg/injection, schedule: Q04DX004 (ip), vehicle: saline with Tween-80.
[5] abbreviates: dose: 3.0 mg/kg/injection, schedule: Q04DX004 (ip), vehicle: saline with Tween-80.
The mark [6] stands for this setting: dose: 100.0 mg/kg/injection, schedule: Q04DX004 (ip), vehicle: saline with Tween-80.
Where [7] appears, read: dose: 200.0 mg/kg/injection, schedule: Q04DX004 (ip), vehicle: saline with Tween-80.

As for `COC(=O)C12OCC34C(CC5C(C)C6=CC(=O)OC6=CC5(C)C3C(O)C1O)OC(=O)C(O)C24` (centres undefined), the T/C by setting is: (dose: 0.5 mg/kg/injection, schedule: Q04DX004 (ip), vehicle: Klucel (hydroxypropylcellulose) (HPC)) 146 % of control; (dose: 1.0 mg/kg/injection, schedule: Q04DX004 (ip), vehicle: Klucel (hydroxypropylcellulose) (HPC)) 138 % of control [9 of 10 alive on day 14]; under setting [1], 136 % of control; (dose: 3.33 mg/kg/injection, schedule: Q04DX003 (ip), vehicle: Klucel (hydroxypropylcellulose) (HPC)) 128 % of control. Also, the survivor count was 2 of 10 on day 14 under setting [1]; 0 of 10 on day 14 and 5 of 10 on day 14 (dose: 4.0 mg/kg/injection, schedule: Q04DX004 (ip), vehicle: Klucel (hydroxypropylcellulose) (HPC)).
For the molecule `OCCOCCN1CCN(CCCN2c3ccccc3Sc3ccc(C(F)(F)F)cc32)CC1`, the survivor count (dose: 120.0 mg/kg/injection, schedule: Q04DX004 (ip), vehicle: saline) is 0 of 10 on day 14 and 7 of 10 on day 14.
For the molecule `Clc1cc2c(nn1)Nc1ccccc1S2`, the survivor count under setting [2] is recorded as 10 of 10 on day 14 and the survivor count under setting [3] is 8 of 10 on day 14.
Take `Cn1nc2c(c(Cl)c1=O)Nc1ccccc1O2`: the survivor count is recorded as 10 of 10 on day 14 (dose: 300.0 mg/kg/injection, schedule: Q04DX004 (ip), vehicle: saline with Tween-80) and 9 of 10 on day 14 (dose: 600.0 mg/kg/injection, schedule: Q04DX004 (ip), vehicle: saline with Tween-80).
As for `C=C(OC)C(Nc1cc(OC)c(OC)cc1C(=O)OC1CC(O[C@@H]2C(=O)C(NC(=O)OC)=C3/C(=C\CSSSC)[C@]2(O)C#C/C=C\C#C[C@@H]3OC2OC(C)C(NOC3CC(O)C(SC)C(C)O3)C(O)C2OC2CC(OC)C(NCCC)CO2)OC(C)C1O)OC` (some centres undefined), the T/C was 127 % of control (dose: 0.16 micrograms/kg/injection, schedule: Q04DX004 (ip), vehicle: saline + alcohol) and 139 % of control (dose: 0.64 micrograms/kg/injection, schedule: Q04DX004 (ip), vehicle: saline + alcohol). Besides, the survivor count (dose: 2.56 micrograms/kg/injection, schedule: Q04DX004 (ip), vehicle: saline + alcohol) is 8 of 10 on day 14.
Regarding `Cn1nnc2c(C(N)=O)ncn2c1=O`, the T/C (dose: 50.0 mg/kg/injection, schedule: Q04DX004 (ip), vehicle: saline) is 142 % of control. Moreover, the survivor count (dose: 400.0 mg/kg/injection, schedule: Q04DX004 (ip), vehicle: saline) is listed as 0 of 10 on day 14 and the survivor count (dose: 800.0 mg/kg/injection, schedule: Q04DX004 (ip), vehicle: saline) is on record as 0 of 10 on day 14.
Turning to `CN(C)CCNC1=CC(=O)c2ccccc2C1=O`, the survivor count runs as follows: (dose: 200.0 mg/kg/injection, schedule: Q04DX004 (ip), vehicle: distilled water + Tween-80) 3 of 10 on day 14; (dose: 400.0 mg/kg/injection, schedule: Q04DX004 (ip), vehicle: distilled water + Tween-80) 0 of 10 on day 14; (dose: 800.0 mg/kg/injection, schedule: Q04DX004 (ip), vehicle: distilled water + Tween-80) 0 of 10 on day 14.
Regarding `COc1nc2cc3c(cc2n2cccc12)oc1ccccc13`, the survivor count by setting is: under setting [4], 10 of 10 on day 14; under setting [5], 10 of 10 on day 14; (dose: 3.13 mg/kg/injection, schedule: Q04DX004 (ip), vehicle: saline with Tween-80) 9 of 10 on day 14; (dose: 6.0 mg/kg/injection, schedule: Q04DX004 (ip), vehicle: saline with Tween-80) 9 of 10 on day 14; (dose: 6.25 mg/kg/injection, schedule: Q04DX004 (ip), vehicle: saline with Tween-80) 10 of 10 on day 14; (dose: 12.5 mg/kg/injection, schedule: Q04DX004 (ip), vehicle: saline with Tween-80) 9 of 10 on day 14. In addition, the survivor count runs as follows: (dose: 25.0 mg/kg/injection, schedule: Q04DX004 (ip), vehicle: saline with Tween-80) 9 of 10 on day 14 and 10 of 10 on day 14; (dose: 50.0 mg/kg/injection, schedule: Q04DX004 (ip), vehicle: saline with Tween-80) 2 of 10 on day 14 and 9 of 10 on day 14; under setting [6], 10 of 10 on day 14; under setting [7], 8 of 10 on day 14; under setting [2], 8 of 9 on day 14.
For the molecule `CC[C@@]1(O)C(=O)OCc2c1cc1n(c2=O)Cc2cc3ccccc3nc2-1`, the T/C runs as follows: (dose: 0.75 mg/kg/injection, schedule: Q04DX004 (ip), vehicle: saline with Tween-80) 126 % of control; under setting [4], 125 % of control; under setting [5], 134 % of control. Besides, where the note is “dose: 12.0 mg/kg/injection, schedule: Q04DX004 (ip), vehicle: saline with Tween-80”, the survivor count is given as 5 of 10 on day 14.
In the case of `C=CCNC(=O)c1ccccc1SC(C)=O`, under setting [3], the survivor count was 3 of 10 on day 9.
With `Cc1ccc(C(=Nc2ccccc2)N=P(c2ccccc2)(c2ccccc2)c2ccccc2)cc1`, the survivor count reads like this: under setting [6], 0 of 10 on day 14; under setting [7], 4 of 10 on day 14; under setting [2], 0 of 10 on day 14.
`CC(O)C1(O)C(O)CC(OC2c3cc4c(c(O)c3[C@@H]3C[C@@]2(C)OC32C=c3cc[nH]c3=N2)C(=O)c2cccc(O)c2C4=O)OC1C` (some centres undefined): the survivor count is reported as 0 of 10 on day 14 under setting [6] and 0 of 10 on day 14 under setting [7].
With `CCOC(=O)C1=C(C)O/C(=C/c2cccc(Cl)c2)C1=O`, the survivor count under setting [3] is given as 0 of 10 on day 9.
Turning to `C/C(=C\c1ccccc1)C1C(C#N)C(=O)NC(=O)C1C#N` (centres undefined), the survivor count (dose: 800.0 mg/kg/injection, schedule: Q04DX004 (ip), vehicle: Klucel (hydroxypropylcellulose) (HPC)) was 3 of 10 on day 14.
Regarding `O=C(O)CCCCCCCC(=O)O`, the survivor count by setting is: (dose: 600.0 mg/kg/injection, schedule: Q04DX004 (ip), vehicle: distilled water + Tween-80) 5 of 10 on day 14; (dose: 1200.0 mg/kg/injection, schedule: Q04DX004 (ip), vehicle: distilled water + Tween-80) 0 of 10 on day 14.
Consider `O=C1N[C@H]2[C@H](O)[C@H](O)[C@@H](O)[C@H](O)[C@@H]2c2cc3c(c(O)c21)OCO3`, for which the T/C is, setting by setting: (dose: 0.75 mg/kg/injection, schedule: Q01DX009 (ip), vehicle: saline + alcohol) 126 and 131 % of control; (dose: 0.78 mg/kg/injection, schedule: Q01DX009 (ip), vehicle: saline + alcohol) 132 % of control [7 of 10 alive on day 14]; (dose: 1.5 mg/kg/injection, schedule: Q01DX009 (ip), vehicle: saline + alcohol) 129 and 144 % of control; (dose: 1.56 mg/kg/injection, schedule: Q01DX009 (ip), vehicle: saline + alcohol) 129 % of control [9 of 10 alive on day 14]; (dose: 3.0 mg/kg/injection, schedule: Q04DX004 (ip), vehicle: saline + alcohol) 125 and 129 % of control; (dose: 3.12 mg/kg/injection, schedule: Q01DX009 (ip), vehicle: saline + alcohol) 143 % of control [9 of 10 alive on day 14]. Further, the T/C is 132 and 136 % of control (dose: 6.0 mg/kg/injection, schedule: Q04DX004 (ip), vehicle: saline + alcohol); 140 [7 of 10 alive on day 14] and 144 % of control [8 of 10 alive on day 14] (dose: 12.0 mg/kg/injection, schedule: Q04DX004 (ip), vehicle: saline + alcohol). Besides, the survivor count (dose: 6.0 mg/kg/injection, schedule: Q01DX009 (ip), vehicle: saline + alcohol) is recorded as 6 of 10 on day 14; the survivor count (dose: 12.0 mg/kg/injection, schedule: Q01DX009 (ip), vehicle: saline + alcohol) was 0 of 10 on day 14 and 1 of 10 on day 14; the survivor count (dose: 12.5 mg/kg/injection, schedule: Q01DX009 (ip), vehicle: saline + alcohol) is listed as 0 of 10 on day 14; the survivor count (dose: 24.0 mg/kg/injection, schedule: Q04DX004 (ip), vehicle: saline + alcohol) was 0 of 10 on day 14 and 3 of 10 on day 14.
As to `COc1ncc(Br)cc1C(=O)NCCc1ccc(S(=O)(=O)NC(=O)NC2CCCCC2)cc1`, the survivor count is, setting by setting: under setting [6], 6 of 10 on day 14; under setting [7], 2 of 10 on day 14.
